Measured values taken from EP1790337A2, “Methods and compounds for treating depression and other disorders” (priority 1998, dated 2000).

Legend:
NMDA receptor [1] = assay: [3H]MK-801 binding assay, synaptic plasma membranes from rat cortex; conditions: Table II, at 10 µM
Method: Synaptic plasma membranes (SPMs) from rat cortex were prepared as follows. […] The cortices from 25 rats were thawed and pooled. […] The extensive washing procedure utilized in this assay was designed to minimize the concentrations of glutamate and glycine (co-agonists at the NMDA receptor-ionophore complex) present in the membrane preparation.
On the day of assay, aliquots of SPM were thawed and resuspended in 75 vols of 5 mM K-EDTA, pH 7.0.
The SPM pellet was resuspended in assay buffer (30 mM EPPS, 1 mM K-EDTA, pH 7.0) by polytron. […] Binding was started by the addition of the tissue homogenate. The assay was terminated by the addition of 4 ml ice-cold buffer, followed by filtration over glass-fiber filters (Schleicher & Schuell No. 30) on a Millipore 12-well filtration manifold. […] Radioactivity on the filters was measured using Fisherbrand Scinti-Safe scintillation cocktail. Samples were shaken for 45-60 min on a shaker platform to solubilize the radioactivity. Counting for ^3H was performed in a Beckman 6000IC LS Scintillation Counter for 4 min per sample.

NMDA receptor [2] = assay: NMDA assay: fura-2 measurement of cytosolic calcium in cultured rat cerebellar granule cells; format: cell-based; conditions: read-out: fura2 data IC50, fura-2 [Ca2+]i
Method: All culture media, antibiotics, and enzymes, with the exception of fetal calf serum (Hyclone Laboratories, Logan, UT), were purchased from Sigma Chemical Co., St. Louis, MO. Fura-2/AM was obtained from Molecular Probes, Eugene, OR, and was prepared freshly in dimethylsulfoxide (DMSO) before use. Ionomycin (Calbiochem) was stored as a stock solution in DMSO. Nifedipine (Sigma) and nimodipine (RBI) were dissolved in absolute ethanol. […] All other agents were dissolved in phosphate-buffered saline (PBS), and adjusted to pH 7.4
Briefly, primary cultures of cerebellar granule neurons were obtained from 8-day-old rats and plated onto squares of Aclar plastic coated with poly-L-lyaine. The plastic squares were placed in 12-well culture plates, and ~7.5 x 10^5 cells were added to each well. […] No changes of culture medium were made until the cells were used for fluorescence recording 6-8 days after plating.
The cells were then rinsed with the same buffer, lacking fura-2/AM, and maintained at room temperature until used for measurement of fluorescence, the Aclar squares were transferred into quartz cuvettes containing 2 ml of the HEPES buffer. […] Fluorescence was measured using excitation and emission wavelengths of 340 and 510 nm, respectively.

Structure (SMILES): CNCCC(Oc1ccc(C(F)(F)F)cc1)c1ccccc1 (centres unmarked) [Fluoxetine]
- [^1H]MK-801 data (NMDA receptor [1]): No activity at 10 µM
- IC50 (NMDA receptor [2]): 3.4 µM
